The test concerns BDF1 mice, B16 melanoma ip, median survival T/C. In words: NCI In Vivo Anticancer Drug Screen. Data for tumor model B16 Melanoma (intraperitoneal) in B6D2F1 (BDF1) mice. To be noted: T/C endpoint: median survival time, higher T/C = longer survival. As to the method: The antitumor activity of compounds was measured in mice bearing transplantable tumors. Survival or tumor size were measured and the results are expressed as the measurement made in the treated group (T) divided by the measurement made in the vehicle treated control group (C). The tumor model used in this assay is B16 Melanoma (intraperitoneal) in B6D2F1 (BDF1) mice

The mark [1] stands for this setting: dose: 25.0 mg/kg/injection, schedule: Q01DX009 (ip), vehicle: saline.
Setting [2] is: dose: 400.0 mg/kg/injection, schedule: Q01DX009 (ip), vehicle: saline with Tween-80.
Where [3] appears, read: dose: 100.0 mg/kg/injection, schedule: Q01DX009 (ip), vehicle: saline with Tween-80.

Structures are written as SMILES. The list does not hold the whole screen: it gathers tests that were run many times, whatever their T/C, doses with no T/C, and many T/C values between a quarter and a half above the control. Further doses and runs are listed elsewhere. T/C: endpoint of the treated group in % of that of the vehicle group. Some entries give survivors of the animals treated and no T/C: the source files T/C as zero there, which appears to mark a toxic dose or a test without result, not a measured value. Some doses without a T/C left all or most animals alive at the check, yet need not have been tolerated: survival well below the control is almost never listed, so the zero probably covers shortened survival too. Counts of survivors are from the toxicity check (mostly the fifth day) where no day follows; animals may have died later. Schedule codes are those of the source, taken here to give the interval after Q, in days (D) or hours (H), and the number of doses after X. Some entries hold several experiments; their values stand side by side, smallest first. Where survival is the endpoint, this PubChem deposit counts one and a half times the control or more as active, and values a quarter to a half above the control carry no call in these data; other NCI protocols may use other cut-offs.

Consider `CN(C)CC/C=C1\c2ccccc2CSc2ccccc21`, for which the survivor count (dose: 12.5 mg/kg/injection, schedule: Q01DX009 (ip), vehicle: saline) is listed as 8 of 10; the survivor count under setting [1] was 10 of 10; the survivor count (dose: 100.0 mg/kg/injection, schedule: Q01DX009 (ip), vehicle: saline) is 0 of 10; the survivor count (dose: 200.0 mg/kg/injection, schedule: Q01DX009 (ip), vehicle: saline) is reported as 0 of 10; the survivor count (dose: 400.0 mg/kg/injection, schedule: Q01DX009 (ip), vehicle: saline) is given as 0 of 10.
Regarding `O=C(O)CCCSc1nc2ccccc2s1`, the survivor count under setting [2] was 6 of 10.
On to `C=CS(C=C)=NS(=O)(=O)c1ccc(C)cc1`, for which the survivor count (dose: 50.0 mg/kg/injection, schedule: Q01DX009 (ip), vehicle: Klucel (hydroxypropylcellulose) (HPC)) is 0 of 10.
As to `O=P(N1CCOCC1)(N1CC1)N1CC1`, the survivor count is on record as 10 of 10 under setting [1] and 8 of 10 (dose: 50.0 mg/kg/injection, schedule: Q01DX009 (ip), vehicle: saline).
In the case of `Clc1cccc(/C=C2\c3cc(Cl)ccc3-c3c(Cl)cc(Cl)cc32)c1`, the survivor count under setting [3] is 6 of 6.
Regarding `COc1cc2c3c(c1)/C(=N\Nc1ccccc1)CCN3CCC2`, the survivor count is, setting by setting: (dose: 0.75 mg/kg/injection, schedule: Q01DX009 (ip), vehicle: DMSO) 10 of 10; (dose: 0.78 mg/kg/injection, schedule: Q01DX009 (ip), vehicle: DMSO) 9 of 9; (dose: 1.5 mg/kg/injection, schedule: Q01DX009 (ip), vehicle: DMSO) 9 of 9; (dose: 1.56 mg/kg/injection, schedule: Q01DX009 (ip), vehicle: DMSO) 10 of 10; (dose: 3.0 mg/kg/injection, schedule: Q01DX009 (ip), vehicle: DMSO) 9 of 10, 10 of 10, 9 of 9; (dose: 6.0 mg/kg/injection, schedule: Q01DX009 (ip), vehicle: DMSO) 10 of 10. Under “dose: 12.0 mg/kg/injection, schedule: Q01DX009 (ip), vehicle: DMSO”, the survivor count was 10 of 10.
As for `O=S(=O)(F)c1cc(C[P+](c2ccccc2)(c2ccccc2)c2ccccc2)ccc1Cl`, the survivor count is, setting by setting: (dose: 0.8 mg/kg/injection, schedule: Q04DX003 (ip), vehicle: saline with Tween-80) 10 of 10; (dose: 1.5 mg/kg/injection, schedule: Q04DX003 (ip), vehicle: saline with Tween-80) 10 of 10; (dose: 6.25 mg/kg/injection, schedule: Q04DX003 (ip), vehicle: saline with Tween-80) 10 of 10; (dose: 25.0 mg/kg/injection, schedule: Q04DX003 (ip), vehicle: saline with Tween-80) 10 of 10.
Take `CC1(C)CCSC(/C=C/c2ccccc2)=N1`: where the note is “dose: 400.0 mg/kg/injection, schedule: Q01DX009 (ip), vehicle: Klucel (hydroxypropylcellulose) (HPC)”, the survivor count was 1 of 10.
`Cc1ccc2c(c1)CC(C)([CH2][Hg][Cl])O2` (stereo unspecified): the survivor count is on record as 9 of 10 (dose: 6.0 mg/kg/injection, schedule: Q01DX009 (ip), vehicle: Klucel (hydroxypropylcellulose) (HPC)); 10 of 10 (dose: 6.0 mg/kg/injection, schedule: Q04DX003 (ip), vehicle: Klucel (hydroxypropylcellulose) (HPC)); 6 of 10 (dose: 12.0 mg/kg/injection, schedule: Q01DX009 (ip), vehicle: Klucel (hydroxypropylcellulose) (HPC)); 9 of 10 (dose: 12.0 mg/kg/injection, schedule: Q04DX003 (ip), vehicle: Klucel (hydroxypropylcellulose) (HPC)).
Turning to `CN(C)N=Nc1c(Cl)cccc1Cl`, the survivor count reads like this: (dose: 75.0 mg/kg/injection, schedule: Q01DX009 (ip), vehicle: Klucel (hydroxypropylcellulose) (HPC)) 10 of 10; (dose: 150.0 mg/kg/injection, schedule: Q01DX009 (ip), vehicle: Klucel (hydroxypropylcellulose) (HPC)) 9 of 10; (dose: 300.0 mg/kg/injection, schedule: Q01DX009 (ip), vehicle: Klucel (hydroxypropylcellulose) (HPC)) 8 of 10.
Take `COC(=O)[C@@H]1c2cc3c(c(O)c2[C@@H](OC2OC(C)C(OC)C(C)(OC)C2OC)C[C@]1(C)O)C(=O)c1c(O)cc2c(c1C3=O)O[C@H]1O[C@]2(C)[C@H](O)[C@@H](N(C)C)[C@@H]1O` (stereo partly specified): the T/C runs as follows: (dose: 125.0 micrograms/kg/injection, schedule: Q01DX009 (ip), vehicle: other) 138 % of control; (dose: 648.0 micrograms/kg/injection, schedule: Q04DX003 (ip), vehicle: lactic acid) 131 % of control. For the same molecule, the survivor count was 8 of 10 (dose: 1000.0 micrograms/kg/injection, schedule: Q01DX009 (ip), vehicle: other); 10 of 10 (dose: 1800.0 micrograms/kg/injection, schedule: Q04DX003 (ip), vehicle: lactic acid); 9 of 10 (dose: 2000.0 micrograms/kg/injection, schedule: Q01DX009 (ip), vehicle: other); 9 of 10 and 10 of 10 (dose: 3000.0 micrograms/kg/injection, schedule: Q04DX003 (ip), vehicle: lactic acid).
With `Nc1cc2nc3ccccc3sc-2cc1=O`, under setting [2], the survivor count is 6 of 10.
Regarding `CCOC(=O)C(Cc1ccc(Cl)c(Cl)c1)(Cc1ccc(Cl)c(Cl)c1)C(=O)OCC`, the survivor count runs as follows: under setting [3], 10 of 10; (dose: 200.0 mg/kg/injection, schedule: Q01DX009 (ip), vehicle: saline with Tween-80) 10 of 10; under setting [2], 10 of 10.
In the case of `CC(=O)Nc1ccc2c(c1)C[N+](C)(C1CCCCC1)CO2` (stereo unspecified), the survivor count (dose: 50.0 mg/kg/injection, schedule: Q01DX009 (ip), vehicle: saline with Tween-80) was 10 of 10.
On to `CC(=O)Nc1ccn(C2OC(CO)C(O)C2O)c(=O)n1` (stereo unspecified), for which the survivor count under setting [3] is 9 of 10.

Source of the values: PubChem BioAssay AID192 (DTP/NCI, 2004).
